Source: patent US20250152501A1, “DISSOLVING MICRONEEDLE FOR TRANSDERMAL DELIVERY OF BIOPHARMACEUTICAL, AND MANUFACTURING METHOD THEREFOR” (Dongguk University Industry-Academic Cooperation Foundation, priority 2022, published 2025)
For at least one compound, name, drawing or mass did not settle the structure.

Test system: STZ-induced type 2 diabetes model mice
Assay: In vivo efficacy study: blood glucose change
Conditions: 100 μg/kg liraglutide, subcutaneous injection

## CCCCCCCCCCCCCCCC(=O)N[C@@H](CCC(=O)NCCCC[C@H](NC(=O)[C@H](C)NC(=O)[C@H](C)NC(=O)[C@H](CCC(N)=O)NC(=O)CNC(=O)[C@H](CCC(=O)O)NC(=O)[C@H](CC(C)C)NC(=O)[C@H](Cc1ccc(O)cc1)NC(=O)[C@H](CO)NC(=O)[C@H](CO)NC(=O)[C@@H](NC(=O)[C@H](CC(=O)O)NC(=O)[C@H](CO)NC(=O)[C@@H](NC(=O)[C@H](Cc1ccccc1)NC(=O)[C@@H](NC(=O)CNC(=O)[C@H](CCC(=O)O)NC(=O)[C@H](C)NC(=O)[C@@H](N)Cc1cnc[nH]1)[C@@H](C)O)[C@@H](C)O)C(C)C)C(=O)N[C@@H](CCC(=O)O)C(=O)N[C@@H](Cc1ccccc1)C(=O)N[C@H](C(=O)N[C@@H](C)C(=O)N[C@@H](Cc1c[nH]c2ccccc12)C(=O)N[C@@H](CC(C)C)C(=O)N[C@H](C(=O)N[C@@H](CCCNC(=N)N)C(=O)NCC(=O)N[C@@H](CCCNC(=N)N)C(=O)NCC(=O)O)C(C)C)[C@@H](C)CC)C(=O)O [liraglutide]
  Time over which blood glucose gradually recovered to the initial level: 8 h
Within 2 hours after administration
  Blood glucose concentration as percentage of the initial blood glucose level: 61%
